{"sequences": {"note": "Amino acid sequences for entries named in this document (tags omitted). Residues count along the entry.", "UniProt Q9Y6X9, residues 1-603": "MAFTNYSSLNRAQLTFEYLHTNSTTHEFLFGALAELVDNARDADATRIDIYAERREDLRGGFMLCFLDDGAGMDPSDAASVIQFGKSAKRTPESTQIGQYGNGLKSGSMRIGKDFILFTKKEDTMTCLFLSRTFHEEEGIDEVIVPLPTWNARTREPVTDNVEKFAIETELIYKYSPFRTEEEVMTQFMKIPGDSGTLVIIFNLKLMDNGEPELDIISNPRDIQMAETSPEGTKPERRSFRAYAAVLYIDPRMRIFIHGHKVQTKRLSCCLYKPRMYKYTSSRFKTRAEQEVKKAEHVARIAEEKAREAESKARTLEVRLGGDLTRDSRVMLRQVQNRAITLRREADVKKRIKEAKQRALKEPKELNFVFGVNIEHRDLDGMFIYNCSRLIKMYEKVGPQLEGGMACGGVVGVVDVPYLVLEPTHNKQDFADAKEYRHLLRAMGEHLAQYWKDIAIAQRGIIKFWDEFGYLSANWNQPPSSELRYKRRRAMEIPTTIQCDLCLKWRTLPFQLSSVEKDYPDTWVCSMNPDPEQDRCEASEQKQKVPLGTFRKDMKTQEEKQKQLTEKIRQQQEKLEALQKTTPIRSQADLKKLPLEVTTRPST"}, "source": "paper PMC11879086", "about": "“Identification and characterization of a human MORC2 DNA binding region that is required for gene silencing” (Nucleic Acids Research, 2024)", "molecular_target": "MORC2 1-603 (N-terminal fragment of human MORC2) (human) (UniProt Q9Y6X9)", "assay": "SEC-MALS; 1-603 MORC2, 1 mg/ml, 50 mM NaCl, 3 mM MgCl2, 20 mM Na-HEPES pH 7.4, 0.5 mM TCEP, 1.5% glycerol, 0.025 mM ZnCl2, without AMP-PNP; Wyatt 030 column; both purified", "note": "Results are given in words; binding and its absence hold for the method and conditions named."}
{"substance": "MORC2 1-603 (N-terminal fragment of human MORC2) (from UniProt Q9Y6X9 1-603) (domain or fragment)", "values": [{"measurement": "binding", "value": "no binding (condition: without AMP-PNP (1 mg/ml))"}]}
